{"source": "patent US20230133580A1", "about": "“MENTHOL-CONTAINING COMPOSITION” (SUNSHO PHARMACEUTICAL CO., LTD., priority 2020, published 2023)", "experiment": "l-Menthol dissolution test", "type": "physicochemical", "details": "menthol concentration ranging 80 to 60 wt %", "protocol": "The solution was stored at 20° C. and evaluated based on the time during which the solution was maintained in a liquid state without solidifying.\nA sample that solidified before being cooled down to 20° C. [e.g., during the process of cooling down to a temperature below the melting point of l-menthol (generally 42 to 45° C.)] or immediately (e.g., within 30 minutes) after being stored at 20° C. was rated D. A sample that was maintained as a solution for a while (e.g., more than 30 minutes) but solidified in less than 24 hours was rated C.", "note": "Some results were stated once for a whole list of compounds, not compound by compound.", "data": [{"molecule": "OCc1ccccc1", "note": "[Benzyl alcohol]", "values": [{"measurement": "ability to dissolve menthol (rating)", "result": "A (A sample that did not solidify in 10 days or more was rated A)"}]}]}
